# Laboratory results published in PubChem BioAssay AID445 (National Center for Advancing Translational Sciences (NCATS), 2006).
# Several values for one entry are separate records, joined by “and”; a condition that tells them apart may be missing. Equal entries are not always repeated. The list shows a part of the results. Shown are side measurements of this screen, not its main read-out; they come without a call. The list favours compounds with an active or inconclusive main result. Potencies come from curve fits of mixed quality, noted in brackets.
# Assay: IkB Signaling
# Conditions: ABC-DLBCL IkBa-CBG/CBR dual luciferase ratio (green luciferase fused to IkBa over red control in OCI-Ly3 lymphoma cells), 4 h
# Outline: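 Curves were fitted separately to fusion (green), unfused (red) and ratio luminescence, then classed by r2, magnitude and activity. Cells: OCI-Ly3, 4 h compound plus doxycycline at 37C; 10 uM MG-132 defined full response.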
# [1] = measured here: control luc red channel unless noted
# [2] = measured here: IkB-luc green channel
# [3] = measured here: control luc red channel
smiles,measurement,setting,value
O=C(NCCCN1CCN(c2ccc(F)cc2)CC1)c1cnn(-c2ccc(F)cc2)c1-n1cccc1,AC50,[1],"12.6 µM [falling, partial curve]"
O=C(CN1C(=O)COc2ccc(S(=O)(=O)N3CCOCC3)cc21)N1CCN(c2cccc(Cl)c2)CC1,AC50,[1],"31.6 µM [falling, single point]"
CC(=O)c1cccc(Nc2nc(-c3cccc(C)c3)nc3ccccc23)c1,AC50,[1],"12.6 µM [falling, partial curve]"
Cc1nn(-c2ccc(N3CCCCC3)nn2)c(C)c1CCC(=O)NCc1ccc(OC(C)C)cc1,AC50,[1],"12.6 µM [falling, partial curve]"
CC(C)[C@H](CO)Nc1nc(Nc2cccc(Cl)c2)c2ncn(C(C)C)c2n1,AC50,[2],"20 µM [falling, partial curve, poor fit]"
same,AC50,[3],"7.94 µM [falling, full curve] and 501 nM [falling, full curve]"
CCOc1ncccc1C(=O)OCC(=O)c1cc(C)n(Cc2ccco2)c1C,AC50,[1],"25.1 µM [falling, partial curve]"
CC(C)=CCC/C(C)=C/COc1c2ccoc2cc2oc(=O)ccc12,AC50,[1],"0.251 µM [rising, single point]"
COc1cccc(C(=O)NCC(c2ccc(N(C)C)cc2)N2CCc3ccccc32)c1 (stereo not drawn),AC50,[2],"39.8 µM [rising, single point]"
same,AC50,[3],"10 µM [falling, partial curve]"
O=C(CSc1nnc(COc2ccccc2)n1Cc1ccco1)c1ccc(F)cc1,AC50,[1],"25.1 µM [falling, partial curve]"
CCSc1oc(-c2ccco2)nc1S(=O)(=O)c1ccc(Br)cc1,AC50,[1],"15.8 µM [falling, partial curve]"
Cc1ccc(NC(=O)Cn2c(=O)c3ccccc3n3nncc23)cc1,AC50,[1],"15.8 µM [falling, partial curve]"
COc1ccccc1-c1cc2nc(C)c(CCC(=O)O)c(C)n2n1,AC50,[1],"0.1 µM [falling, full curve]"
Cc1ccc(-c2nn(-c3ccc(F)cc3)c3c2cnc2cc(F)c(F)cc23)cc1,AC50,[1],"20 µM [rising, partial curve]"
CCCc1cc(=O)[nH]c(SCC(=O)N2CCN(c3ccccc3OC)CC2)n1,AC50,[1],"10 µM [falling, partial curve]"
COc1cc(NC(=O)c2cc3c(s2)-c2ccccc2OC3)cc(OC)c1OC,AC50,[1],"20 µM [falling, partial curve]"
Cc1cccc(N2CCN(C(=O)c3c(C)oc4ncnc(N5CCOCC5)c34)CC2)c1C,AC50,[1],"39.8 µM [falling, single point]"
Cc1nn(C(=O)COc2ccccc2Br)c(C)c1Sc1ccccc1,AC50,[1],"12.6 µM [falling, partial curve]"
COc1ccc(CCN2C(=O)N(c3ccc(C)cc3)C(=O)C2CC(=O)Nc2ccc(F)cc2)cc1 (stereo not drawn),AC50,[1],"12.6 µM [falling, partial curve]"
COCc1cc(=O)n2[nH]c(-c3cccc(Br)c3)cc2n1,AC50,[1],"3.16 µM [falling, full curve]"
COc1ccc(-c2noc(CCCC(=O)O)n2)cc1,AC50,[1],"0.501 µM [falling, full curve]"
COc1ccccc1OCc1ccc(C(=O)N2CCN3CCCC3C2)cc1 (stereo not drawn),AC50,[1],"39.8 µM [falling, single point]"
CCn1c(SCC(=O)N2c3ccccc3Sc3ccccc32)nnc1-c1ccco1,AC50,[1],"15.8 µM [falling, partial curve]"
CCn1cnc2cc(NCc3cccc(OC)c3O)ccc21,AC50,[1],"31.6 µM [rising, partial curve] [measured here: IkB-luc green channel]"
Cc1cccc(NC(=O)C(=O)NCCc2sc(-c3ccccc3)nc2C)c1C,AC50,[1],"3.16 µM [rising, full curve, poor fit]"
COc1ccc(-c2cn3c(n2)sc2cc(C(=O)NC4CCCCCC4)ccc23)cc1,AC50,[1],"20 µM [falling, single point]"
CC(CNC(=O)c1cc(-c2ccccc2)n[nH]1)c1ccccc1 (stereo not drawn),AC50,[1],"31.6 µM [falling, partial curve]"
O=C(c1ccc(F)cc1)N1CCC(c2nc(-c3ccc(S(=O)(=O)N4CCCC4)cc3)no2)CC1,AC50,[1],"7.94 µM [falling, partial curve]"
COc1ccccc1N(CC(=O)Nc1ccc2c(c1)OCO2)S(=O)(=O)c1ccc(C)cc1,AC50,[1],"15.8 µM [falling, partial curve]"
O=C(Cn1cnc2onc(-c3ccc(F)cc3)c2c1=O)Nc1ccc(F)c(Cl)c1,AC50,[1],"31.6 µM [falling, single point]"
O=C(CN1c2ccccc2S(=O)(=O)c2ccccc21)Nc1ccccc1Cl,AC50,[1],"12.6 µM [falling, partial curve]"
Cn1c(C(C#N)C(=O)c2sc3ccccc3c2Cl)nc2ccccc21 (stereo not drawn),AC50,[1],"25.1 µM [rising, partial curve] [measured here: IkB-luc green channel]"
CCOc1ccc(S(=O)(=O)c2cn(Cc3ccccc3C)c3ccc(OC)cc3c2=O)cc1,AC50,[1],"1 µM [falling, full curve, poor fit]"
O=C(O)CCC(=O)Nc1nc(-c2ccccc2)cs1,AC50,[1],"15.8 µM [falling, partial curve]"
O=C(c1ccc2c(c1)N(Cc1c(F)cccc1Cl)C(=O)c1ccccc1S2)N1CCOCC1,AC50,[1],"25.1 µM [falling, partial curve]"
CCOc1cccc(C2c3[nH]c4ccccc4c3CCN2C(=O)CSCc2ccc(F)cc2)c1 (stereo not drawn),AC50,[1],"1.26 µM [falling, full curve]"
Cc1ccc2c(c1)c(CC(=O)Nc1ccc(C)c(F)c1)c(C(=O)O)n2C,AC50,[1],"31.6 µM [falling, partial curve]"
Cc1ccc2nc(COc3ccccc3NC(=O)c3ccccc3F)cc(=O)n2c1,AC50,[1],"0.0631 µM [falling, full curve, poor fit]"
Fc1ccc(-c2nn3c(C4COc5ccccc5O4)nnc3s2)cc1 (stereo not drawn),AC50,[1],"3.98 µM [falling, partial curve]"
NC(=O)Cn1c(=O)n(CCCCCC(=O)NCc2ccc(F)cc2)c(=O)c2sccc21,AC50,[1],"3.98 µM [rising, full curve, poor fit]"
COc1ccc(-c2c3c(=O)n(C)c(=O)n(C)c3c3n2-c2ccccc2NC3c2ccc(O)cc2O)cc1 (stereo not drawn),AC50,[1],"10 µM [falling, partial curve]"
Cc1cc(OCCCn2c(CCNC(=O)C3CCCCC3)nc3ccccc32)ccc1Cl,AC50,[1],"12.6 µM [falling, partial curve]"
COc1ccc(N(CC(=O)Nc2cccc(C(C)=O)c2)S(=O)(=O)c2ccccc2)c(OC)c1,AC50,[1],"39.8 µM [falling, single point]"
CCOc1ccc(C(=O)N(Cc2cc(OC)c(OC)c(OC)c2)c2ccccn2)cc1,AC50,[1],"7.94 µM [falling, partial curve]"
CCOC(=O)C1=C(C)NC(=O)NC1c1cn(-c2ccccc2)nc1-c1ccc(OC(C)C)cc1 (stereo not drawn),AC50,[1],"20 µM [falling, partial curve]"
Cc1nn(C)c2c1c(C(F)(F)F)cc(=O)n2C(C)C(=O)NCCc1ccccc1 (stereo not drawn),AC50,[1],"25.1 µM [falling, partial curve]"
O=C(Nc1nc2n(n1)C(c1ccc(Cl)cc1)C=C(c1ccccc1)N2)c1ccco1 (stereo not drawn),AC50,[1],"20 µM [falling, single point]"
CCC(COC(=O)Nc1cccc(C)c1C)NC(=O)OCC(C)C (stereo not drawn),AC50,[1],"12.6 µM [falling, partial curve]"
COc1ccc(CCNC(c2ccc(F)cc2)c2nnc(-c3ccccc3Cl)o2)cc1OC (stereo not drawn),AC50,[1],"25.1 µM [falling, partial curve]"
Cc1cc(C)c(O)c(-c2cc(C(=O)Nc3ccc(S(=O)(=O)N4CCOCC4)cc3)[nH]n2)c1,AC50,[1],"6.31 µM [falling, full curve]"
CC(C)c1nc2cc3ccccc3cc2[nH]1,AC50,[1],"25.1 µM [falling, single point]"
CCCCCn1c(SCc2ccncc2)nc2cc(C(=O)NCc3ccco3)ccc2c1=O,AC50,[1],"7.94 µM [falling, partial curve]"
Cc1cc(C)c2c(=O)c3c(oc2c1)C(=O)N(Cc1ccc(F)cc1)C3c1cccc(O)c1 (stereo not drawn),AC50,[1],"15.8 µM [falling, partial curve]"
Cc1ccc(CNC(=O)CN(c2ccc(C(C)C)cc2)S(=O)(=O)c2c(C)n[nH]c2C)cc1,AC50,[1],"15.8 µM [falling, partial curve]"
Cc1cc(OCCCCCNCCO)cc(C)c1Cl,AC50,[1],"39.8 µM [falling, single point]"
O=C(COc1ccc(Cl)cc1)Nc1ccccc1C(=O)OCc1cc(=O)n2ccsc2n1,AC50,[1],"20 µM [falling, partial curve, poor fit]"
CCCC(=O)NCC(c1ccc2c(c1)OCO2)N1CCOCC1 (stereo not drawn),AC50,[1],"0.2 µM [falling, full curve]"
CSc1nccc(Nc2ccccc2)c1C#N,AC50,[1],"3.98 µM [rising, partial curve]"
O=C(Nc1ccc(SC(F)F)cc1)c1cc(-c2cccs2)on1,AC50,[1],"12.6 µM [falling, partial curve]"
COc1ccc(-c2cc3nc(-c4ccccc4)cc(N4CCC5(CC4)OCCO5)n3n2)cc1,AC50,[1],"6.31 µM [falling, partial curve]"
COc1ccc(OC)c(NC(=O)CSc2nc(-c3ccccc3C)nc3cc(=O)[nH]n23)c1,AC50,[1],"31.6 µM [falling, single point]"
CC(=O)c1cccc(NC(=O)CCCN2C(=O)COc3ccc(C)cc32)c1,AC50,[1],"39.8 µM [falling, partial curve]"

# Part of the list above, with bars between the fields.
smiles | measurement | setting | value
COc1ccc(-c2noc(CCCC(=O)O)n2)cc1 | AC50 | [1] | 0.501 µM [falling, full curve]
COc1ccccc1OCc1ccc(C(=O)N2CCN3CCCC3C2)cc1 (stereo not drawn) | AC50 | [1] | 39.8 µM [falling, single point]

# Shown with bars between the fields: part of the list above.
smiles | measurement | setting | value
Cc1ccc2c(c1)c(CC(=O)Nc1ccc(C)c(F)c1)c(C(=O)O)n2C | AC50 | [1] | 31.6 µM [falling, partial curve]
CCCC(=O)NCC(c1ccc2c(c1)OCO2)N1CCOCC1 (stereo not drawn) | AC50 | [1] | 0.2 µM [falling, full curve]
